Experimental data taken from patent US6855325B1, “Use of hypo-osmotic saline solutions and medicine based on said solutions” (Laboratoires GOEMAR S.A., priority 1999, dated 2005).
At least one compound was matched to its structure with a doubt left.

System: interleukine IL-8
Experiment: release of interleukine IL-8 in cultures of keratinocytes under the influence of MCK medium
Assay type: cell-based, human
Settings: 4 hours incubation
Text: Then the ability of the hypoosmotic saline solutions used according to the invention to prevent and to limit the release under the influence of certain diseases or certain pro-inflammatory agents of the chemical mediators responsible for the starting of the cutaneous inflammatory phenomena has been examined.
The tested chemical mediator was interleukine IL-8.
The pro-inflammatory agent was consisting of the MCK culture medium which appears to be at the origin of a strong release of interleukine IL-8 in cultures of keratinocytes.
The procedure was similar to that used in the above disclosed tests concerning the estimation of the cytotoxicity of the various tested products.
These products were the same.
The duration of the incubation was also equal to 4 hours.
Under the influence of the MCK medium, the release of interleukine IL-8 was 100 pg/mg of proteins; in that same medium determination has been carried out of the amounts of interleukine IL-8 released in the presence of the six tested products, i.e. on the one hand, the products J, I, H, K as well as physiological serum which were used without dilution and, on the other hand, dexamethasone which has been used at the rate of 10 μM in the MCK medium.

**Q.** Which “effect on the release of IL-8 (in words)” value does the source give for `C[C@@H]1C[C@H]2[C@@H]3CCC4=CC(=O)C=C[C@]4(C)[C@@]3(F)[C@@H](O)C[C@]2(C)[C@@]1(O)C(=O)CO` [Dexamethasone, dexamethasone] here?
**A.** limits it a little bit more
